According to patent US6730302:
No constants are given. Whether binding was seen depends on the method and setting. Some results given as binding are weak or reduced against the parent protein; the word gives no strength. Where a sequence is shown, tags or fusion partners need not be part of it.

Amino acid sequences for entries named in this document (tags omitted).
UniProt Q04207: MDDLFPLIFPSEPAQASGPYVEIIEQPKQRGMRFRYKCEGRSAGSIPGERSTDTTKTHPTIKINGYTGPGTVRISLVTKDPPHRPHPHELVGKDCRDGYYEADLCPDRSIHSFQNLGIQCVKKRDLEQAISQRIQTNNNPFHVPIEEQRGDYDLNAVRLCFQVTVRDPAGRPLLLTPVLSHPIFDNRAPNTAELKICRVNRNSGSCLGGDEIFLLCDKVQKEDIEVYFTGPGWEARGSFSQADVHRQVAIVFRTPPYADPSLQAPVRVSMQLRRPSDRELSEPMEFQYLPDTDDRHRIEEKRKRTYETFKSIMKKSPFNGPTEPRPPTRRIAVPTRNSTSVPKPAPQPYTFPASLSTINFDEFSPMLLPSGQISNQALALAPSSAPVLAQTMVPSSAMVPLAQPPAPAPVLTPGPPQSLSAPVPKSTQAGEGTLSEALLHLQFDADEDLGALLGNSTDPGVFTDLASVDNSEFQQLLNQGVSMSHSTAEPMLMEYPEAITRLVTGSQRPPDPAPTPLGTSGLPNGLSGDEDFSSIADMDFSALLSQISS

Target: endogenous NF-kB p65 subunit of 70Z/3 cells (mouse) (UniProt Q04207)
Assay: EMSA supershift; both found in the same specific DNA-binding complex

B1: Hsp70/10-p50 fusion protein (protein, not shown: small tags and cut ends)
chain: LPTDGPYLQILEQPKQRGFRFRYVCEGPSHGGLPGASSEKNKKSYPQVKICNYVGPAKVIVQLVTNGKNIHLHAHSLVGKHCEDGICTVTAGPKDMVVGFANLGILHVTKKKVFETLEARMTEACIRGYNPGLLVHPDLAYLQAEGGGDRQLGDREKELIRQAALQQTKEMDLSVVRLMFTAFLPDSTGSFTRRLEPVVSDAIYDSKAPNASNLKIVRMDRTAGCVTGGEEIYLLCDKVQKDDIQIRFYEEEENGGVWEGFGDFSPTDVHRQFAIVFKTPKYKDINITKPASVFVQLRRKSDLETSEPKPFLYYPEIKDKEEVQRKRQKLMPNFSDSFGGGSGAGAGGGGMFGSGGGGGGTGSTGPGYSFPHYKSAVEDEGLKGKISEADKKKVLDKCQEVISWLDANTLAEKDEFEHKRKELEQVCNPIISGLYQGAGGPGPGGFGAQGPKGGSGSGPTIEEVD
B1 was tested, and the binding was “binds”.
